Patent US8003626B2, “Pyrazole-4-carboxamide derivatives as microbiocides” (Syngenta Crop Protection, Inc., priority 2005, dated 2011)
Some entries share one result that the patent states for a list of compounds. At least one structure is not confirmed: it was looked up by name or label, or the drawing left a doubt. Some compounds share one range, which may span the group rather than tell each member.

Key:
Format in all cases: in vivo
Puccinia recondita = experiment: Action against Puccinia recondita/wheat (brown rust on wheat); settings: wheat plants cv. Arina, 0.02% active ingredient spray, inoculated one day after application, assessed 10 days after inoculation
Erysiphe graminis = experiment: Action against Erysiphe graminis/barley (powdery mildew on barley); settings: barley plants cv. Regina, 0.02% active ingredient spray, inoculated one day after application, assessed after 6 days incubation
Uncinula necator = experiment: Action against Uncinula necator/grape (powdery mildew on grapes); settings: grape seedlings cv. Gutedel, 0.02% active ingredient spray, inoculated one day after application, assessed after 7 days incubation
Helminthosporium teres = experiment: Action against Helminthosporium teres/barley (net blotch on barley); settings: barley plants cv. Regina, 0.02% active ingredient spray, inoculated two days after application, assessed after 4 days incubation
Venturia inaegualis = experiment: Action against Venturia inaegualis/apple (scab on apple); settings: apple seedlings cv. McIntosh, 0.02% active ingredient spray, inoculated one day after application, assessed after 4+4+4 days incubation
Podosphaera leucotricha = experiment: Action against Podosphaera leucotricha/apple (powdery mildew on apple); settings: apple seedlings cv. McIntosh, 0.02% active ingredient spray, inoculated one day after application, assessed after 12 days incubation
Botrytis cinerea [1] = experiment: Action against Botrytis cinerea/tomato (Botrytis on tomatoes); settings: tomato plants cv. Roter Gnom, 0.02% active ingredient spray, inoculated two days after application, assessed after 4 days incubation
Botrytis cinerea [2] = experiment: Action against Botrytis cinerea/grape (Botrytis on grapes); settings: grape seedlings cv. Gutedel, 0.02% active ingredient spray, inoculated two days after application, assessed after 4 days incubation
Alternaria solani = experiment: Action against Alternaria solani/tomato (early blight on tomatoes); settings: tomato plants cv. Roter Gnom, 0.02% active ingredient spray, inoculated two days after application, assessed after 3 days incubation
Sertoria tritici = experiment: Action against Sertoria tritici/wheat (Septoria leaf spot on wheat); settings: wheat plants cv. Riband, 0.2% active ingredient spray, inoculated one day after application, assessed 18 days after inoculation

SMILES | infestation (Puccinia recondita) | infestation (Erysiphe graminis) | infestation (Uncinula necator) | infestation (Helminthosporium teres) | infestation (Venturia inaegualis) | infestation (Podosphaera leucotricha) | infestation (Botrytis cinerea [1]) | infestation (Botrytis cinerea [2]) | infestation (Alternaria solani) | disease incidence (Sertoria tritici) [%]
CN1CC(C(=O)Nc2ccccc2[C@@H]2C[C@H]2C2(C)CC2)C(C(F)(F)F)=N1 (relative stereo) [Compound 1.117] | 0-5% | 0-5% | 0-5% | 0-5% | 0-5% |  |  |  |  | 
CN1CC(C(=O)Nc2ccccc2-c2ccc(Br)cc2)C(C(F)(F)F)=N1 (stereo not drawn) [Compound 1.010] | 0-5% | 0-5% |  | 0-5% |  | 0-5% | 0-5% |  |  | 
CC1CCCC(c2ccccc2NC(=O)C2CN(C)N=C2C(F)(F)F)C1 (stereo not drawn) [Compound 1.124] | 0-5% | 0-5% | 0-5% | 0-5% |  | 0-5% | 0-5% |  |  | 
CC1OC(C)(C)c2cccc(NC(=O)C3CN(C)N=C3C(F)(F)F)c21 (stereo not drawn) [Compound 1.128] | 0-5% |  |  |  |  |  |  |  |  | 
CN1CC(C(=O)Nc2cccc3c2C2(C)CCC3(C)O2)C(C(F)(F)F)=N1 (stereo not drawn) [Compound 1.133] | 0-5% |  |  | 0-5% |  |  | 0-5% |  |  | 
CN1CC(C(=O)Nc2cccc3c2C2CCC3C2)C(C(F)(F)F)=N1 (stereo not drawn) [Compound 1.134] |  | 0-5% | 0-5% | 0-5% |  | 0-5% |  |  |  | 
CC(C)C1C2CCC1c1c(NC(=O)C3CN(C)N=C3C(F)(F)F)cccc12 (stereo not drawn) [Compound 1.145] |  |  | 0-5% | 0-5% | 0-5% | 0-5% | 0-5% | 0-5% | 0-5% | < 20
CN1CC(C(=O)Nc2ccsc2-c2ccc(Cl)cc2)C(C(F)(F)F)=N1 (stereo not drawn) [Compound 1.177] | 0-5% |  |  | 0-5% |  |  | 0-5% |  |  | 
CC(C)CC(C)c1sccc1NC(=O)C1CN(C)N=C1C(F)(F)F (stereo not drawn) [Compound 1.188, 1-methyl-3-trifluoromethyl-4,5-dihydro-1H-pyrazole-4-carboxylic acid [2-(1,3-dimethyl-butyl)-thiophen-3-yl]-amide] | 0-5% | 0-5% |  | 0-5% |  |  | 0-5% |  |  | 
